These results are taken from patent publication US5958954.

Construct, isoform or probe ends are uncertain for at least one entry.

The test system of the data set is RAR-alpha/RXR-alpha heterodimer. Briefly: EMSA. The following applies: retarded species only with RAR/RXR combination; not diminished by 10^-6 M AGN 193109; protein translated in vitro; label: end-labeled.

Regarding “TCAGGTCACCAGGAGGTCAGA (double strand) [DR-5 RARE probe]”, the binding result is “binds”.
